Measurements: patent publication US20030119102A1
No constants are given. Whether binding was seen depends on the method and setting. For some assays here: Binding seen in cells or lysates may run through a third protein. For some assays here: A result given as binding can be weak or reduced; the word gives no strength.

Assays:
PSD-95 [1] = experiment: immunofluorescence and reciprocal co-immunoprecipitation, COS-1 cells
PSD-95 [2] = experiment: control coexpression in COS-1 cells

binding (PSD-95 [1])	binding (PSD-95 [2])	Binder
binds	–	chimeric Kv4.3 subunit (Kv4.3ch) (protein, rat) MAAGVAAWLPFARAAAIGWMPVANCPMPLAPADKNKRQDELIVLNVSGRRFQTWRTTLERYPDTLLGSTEKEFFFNEDTKEYFFDRDPEVFRCVLNFYRTGKLHYPRYECISAYDDELAFYGILPEIIGDCCYEEYKDRKRENAERLMDDNESENNQESMPSLSFRQTMWRAFENPHTSTLALVFYYVTGFFIAVSVITNVVETVPCGTVPGSKELPCGERYSVAFFCLDTACVMIFTVEYLLRLFAAPSRYRFIRSVMSIIDVVAIMPYYIGLVMTNNEDVSGAFVTLRVFRVFRIFKFSRHSQGLRILGYTLKSCASELGFLLFSLTMAIIIFATVMFYAEKGSSASKFTSIPASFWYTIVTMTTLGYGDMVPKTIAGKIFGSICSLSGVLVIALPVPVIVSNFSRIYHQNQRADKRRAQKKARLARIRVAKTGSSNAYLHSKRNGLLNEALELTGTPEEEHMGKTTSLIESQHHHLLHCLEKTTGLSYLVDDPLLSVRTSTIKNHEFIDEQMFEQNCMESSMQNYPSTRSPSLSSHSGLTTTCCSRRSKKTTHLPNSNLPATRLRSMQELSTIHIQGSEQPSLTTSRSSLNLKADDGLRPNCKTSQITTAIISIPTPPALTPEGESRPPPASPGPNTNIPSITSNVVKVSVLSNAKAVETDV
–	no binding	rat 1v (protein) MPARVLLAYPGTEMLTQGESEGLQTLGIVVVLCSSLKLLHYLGLIDLSDDKIEDDLEMTMVCHRPEGLEQLEAQTNFTKRELQVLYRGFKNECPSGVVNEETFKQIYAQFFPHGDASTYAHYLFNAFDTTQTGSVKFEDFVTALSILLRGTVHEKLRWTFNLYDINKDGYINKEEMMDIVKAIYDMMGKYTYPVLKEDTPRQHVDVFFQKMDKNKDGIVTLDEFLESCQEDDNIMRSLQLFQNVM
